Experimental data as given in PMC8056046.
No constants are given. Whether binding was seen depends on the method and setting. Binding seen in cells or lysates may run through a third protein. Some results given as binding are weak or reduced against the parent protein; the word gives no strength. For some assays here: Sequences can lack the tags named with a protein.

Protein sequences, listed by entry. Tags and fused reporters are not part of them.
UniProt Q00987: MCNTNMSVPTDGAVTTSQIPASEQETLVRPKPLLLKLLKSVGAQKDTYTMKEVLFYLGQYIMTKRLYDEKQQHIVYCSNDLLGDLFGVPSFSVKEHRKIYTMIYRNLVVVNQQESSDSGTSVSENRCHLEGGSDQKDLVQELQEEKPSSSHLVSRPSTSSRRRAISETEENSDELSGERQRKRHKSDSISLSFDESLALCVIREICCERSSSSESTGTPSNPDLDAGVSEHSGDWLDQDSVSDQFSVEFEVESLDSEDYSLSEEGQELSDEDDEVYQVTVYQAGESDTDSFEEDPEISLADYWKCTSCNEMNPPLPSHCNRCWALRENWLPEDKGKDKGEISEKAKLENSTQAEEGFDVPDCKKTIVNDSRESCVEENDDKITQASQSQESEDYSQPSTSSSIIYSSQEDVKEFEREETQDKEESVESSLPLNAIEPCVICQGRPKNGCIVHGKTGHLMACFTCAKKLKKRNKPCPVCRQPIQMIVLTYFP

Experiments:
[1] = target: T1, Flag-tagged small heterodimer partner (SHP-WT) (UniProt Q15466); test: co-IP; HEK293T cells transfected; Flag-SHP precipitated with anti-FLAG M2 magnetic beads, MDM2 detected with an anti-Myc antibody
T1 sequence: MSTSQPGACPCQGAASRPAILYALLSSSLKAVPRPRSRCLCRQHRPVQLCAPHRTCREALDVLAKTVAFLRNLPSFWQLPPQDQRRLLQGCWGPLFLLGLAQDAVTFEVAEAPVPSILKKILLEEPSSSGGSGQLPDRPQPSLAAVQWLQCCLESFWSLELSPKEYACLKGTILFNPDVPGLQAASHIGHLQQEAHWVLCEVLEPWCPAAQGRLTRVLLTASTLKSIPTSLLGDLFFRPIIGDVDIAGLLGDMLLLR

[2] = target: T2, small heterodimer partner (SHP), endogenous in Lenti-FXR CaSki cells (human (endogenous in CaSki)) (UniProt Q15466); test: co-IP; supernatants of Lenti-FXR CaSki cells incubated with 2 ug IgG or anti-SHP, protein G-Agarose beads, blot with anti-MDM2
T2 sequence: T1 sequence

Row | binding [1] | binding [2] | Substance
1 | binds |  | Myc-tagged murine double minute-2 (MDM2) (from UniProt Q00987 1-491)
2 |  | binds | murine double minute-2 (MDM2), endogenous in Lenti-FXR CaSki cells (from UniProt Q00987 1-491)
